Our source for the binding signal values is paper PMC7819943, “Rice protein-binding microarrays: a tool to detect cis-acting elements near promoter regions in rice”.

The chains behind the UniProt entries cited, without tags or fusion partners.
UniProt Q0JBA9, entry or part of it: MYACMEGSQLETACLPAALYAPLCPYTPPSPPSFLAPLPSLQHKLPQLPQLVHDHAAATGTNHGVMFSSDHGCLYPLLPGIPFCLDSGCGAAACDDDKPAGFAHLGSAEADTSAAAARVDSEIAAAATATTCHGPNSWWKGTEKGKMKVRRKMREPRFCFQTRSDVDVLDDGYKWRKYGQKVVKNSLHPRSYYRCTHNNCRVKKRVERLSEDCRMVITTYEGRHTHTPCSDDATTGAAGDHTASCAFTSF

Some of the results follow.

The assay has as its target OsWRKY34 (Oryza sativa, UniProt Q0JBA9 1-250). The experiment in a line: protein-binding microarray (RPBM); PBS, 2% BSA, 51.3 ng/ul salmon testes DNA, 50 uM zinc acetate, 200 nM TF, 25 C, 1 h; high values mean tight binding. The settings on record: protein: recombinant; tags: N-terminal polyhistidine and DsRed monomer fusion (pET32a); label: CyDye5-dUTP incorporated in the synthesized complementary strand; 3' TTTTT single-stranded linker to array surface; dsDNA, one strand shown. In outline: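 In PBS with 2% BSA, salmon testes DNA and 50 µM zinc acetate, 200 nM protein was incubated on a custom Agilent array at 25 °C for 1 h and then washed off. The array had been made double-stranded by primer extension with Cy5-dUTP and blocked with 2% BSA. The proteins were transcription factors fused N-terminally to polyhistidine and DsRed, expressed in E. coli BL21-CodonPlus and purified on Ni–NTA. The binding signal is per-feature fluorescence intensity (arbitrary units) from an Axon 4000B scanner.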
As to “CTTTATGTACTACTTTTGTCATATACATTGCTGTTGTCCTCGGAGTCACCTAGTGCAG”, the binding signal is 11500 fluorescence intensity (a.u.).

For “CCATTCCATTCAACCACATCTGTTTCTTTAATTGCTGCGTCGGAGTCACCTAGTGCAG”, the binding signal was 9660 fluorescence intensity (a.u.). The value for “ACTAAATTTATTTTTGCAGGTTCATATGGGGAAGTATATCCGGAGTCACCTAGTGCAG” was 8770 fluorescence intensity (a.u.); that for “AAATCCCTCTTGCCTCGTCTCCACTGCTAGAGTATATGGACGGAGTCACCTAGTGCAG” was 8070 fluorescence intensity (a.u.). As for “TTGTTTTTGTCAAATTTCATAATTTTGATCAATATTTATACGGAGTCACCTAGTGCAG”, the binding signal is 9300 fluorescence intensity (a.u.). Consider “GGGTTCGTTTACATGTGCTAATTCTTGCTTTGAACAAGCTCGGAGTCACCTAGTGCAG”, for which the binding signal is 8400 fluorescence intensity (a.u.). With “CCACCTTTTATTTTGCTTCCAAGTACCACGTCACCGCCATCGGAGTCACCTAGTGCAG” the figure was 8500 fluorescence intensity (a.u.); with “CCCTATCTTTCCCAACTCACCTCTCTCGTTTTCCACGCGCCGGAGTCACCTAGTGCAG”, 8790 fluorescence intensity (a.u.).

“GGTGGTGTTCTTTTCTCTGGAGATTAAGATGAAGTTTTTTCGGAGTCACCTAGTGCAG”: the binding signal was 9280 fluorescence intensity (a.u.). The value for “CATTAAGTATATTGTGTTCTTTTGTGTGAGTTCCCAATTCCGGAGTCACCTAGTGCAG” was 8400 fluorescence intensity (a.u.); that for “ACTTCTTCTGACATAATATCCTTCAACACAGTTACTGCCCCGGAGTCACCTAGTGCAG” was 8120 fluorescence intensity (a.u.); that for “TTTGATTGATTCATCGTTCTCTCATTTGACTTCATTGCTACGGAGTCACCTAGTGCAG” was 9120 fluorescence intensity (a.u.).

Take “CTAGCTGACCACTCTACTATACACACACATATATACTTTTCGGAGTCACCTAGTGCAG”: the binding signal is 11800 fluorescence intensity (a.u.). The value for “ACAATCCACATTTTTTTTTCATACTCCCTCCGTTTTTTTACGGAGTCACCTAGTGCAG” was 9200 fluorescence intensity (a.u.). With “ACCGTGAACGACATGTTCCGGCCTGCCCACGAGTCCCGCACGGAGTCACCTAGTGCAG” the figure was 8030 fluorescence intensity (a.u.). The value for “ATATAGACCCATGTTTTTACCTCCATAACGGATTTATTTTCGGAGTCACCTAGTGCAG” was 11500 fluorescence intensity (a.u.).

For “ACACCTAACCTTGACGCGCATACACGTACACGTACGGCGCCGGAGTCACCTAGTGCAG”, the binding signal was 8810 fluorescence intensity (a.u.). The value for “CGGCTGAGGGACGGGCGGGAGGAGGTGGTCGGGTACGGGGCGGAGTCACCTAGTGCAG” was 14700 fluorescence intensity (a.u.); that for “CAATTCTGAATTTATCTGCATGATTCTTTCTTGGCGGTACCGGAGTCACCTAGTGCAG” was 8840 fluorescence intensity (a.u.); that for “TTTTTCTATTTATTTTTCTACTACTTTACCAGCTCATCTACGGAGTCACCTAGTGCAG” was 8360 fluorescence intensity (a.u.). With “CTATAACAGCTCGGTCTTTTGTTGCATTTGCGTGTACAGTCGGAGTCACCTAGTGCAG” the figure was 10100 fluorescence intensity (a.u.). With “ACAGGGCTTGGAATAGGTTGGTGTACAGGGCGGTAGCTTACGGAGTCACCTAGTGCAG” the figure was 8670 fluorescence intensity (a.u.).

With “CCGCATTTAGCATCCAACCACCCTGCATCTGCGGCGTGCACGGAGTCACCTAGTGCAG”, the binding signal is 8380 fluorescence intensity (a.u.). The value for “GGCATTCTTTTTCTGCATCATCATCGTCGTCTTCGTCTTCCGGAGTCACCTAGTGCAG” was 11500 fluorescence intensity (a.u.). With “GCTGTGCTGCTTCCCTAGCTCCTCGGTTGGATCAAAGAGACGGAGTCACCTAGTGCAG” the figure was 8220 fluorescence intensity (a.u.); with “TATGAAGGTTTCTGATCATGTTTTCCATTTTTCCGTTAATCGGAGTCACCTAGTGCAG”, 8670 fluorescence intensity (a.u.); with “AGTTGTCAAAAGTGTCTATATTTAGTTTGTTGCTAAATTTCGGAGTCACCTAGTGCAG”, 8640 fluorescence intensity (a.u.). The value for “AATCACACTAAAAGTTTTATTCATGTTTTATCATCTAAAACGGAGTCACCTAGTGCAG” was 8390 fluorescence intensity (a.u.); that for “GCTGAACGCACACCCTGGGCCGTACATGGGCCGCTTGTCACGGAGTCACCTAGTGCAG” was 8640 fluorescence intensity (a.u.).

Regarding “CTTCGTATATATATGTATATAAAGTTGGTATATTTACATACGGAGTCACCTAGTGCAG”, the binding signal is 8530 fluorescence intensity (a.u.). With “AGGTCCCAAATCACCACAGTCCTTTCAGAATCCTACGTGGCGGAGTCACCTAGTGCAG” the figure was 8180 fluorescence intensity (a.u.); with “AATTCGATGGTTTCCATCACCGTCCTCACACACAAATTTCCGGAGTCACCTAGTGCAG”, 8240 fluorescence intensity (a.u.). With “AAAATTCAAGATCTTCACCCTCAGTCACCTGCCCTGCATTCGGAGTCACCTAGTGCAG” the figure was 8810 fluorescence intensity (a.u.); with “GGCGAGCGCGTCGTGGAGGGCGGGGAGGGAGTCGGGCTGGCGGAGTCACCTAGTGCAG”, 14400 fluorescence intensity (a.u.). With “CCTTACCTTGGCAAGCTAGGCTACTCCTGTCATCCATCTTCGGAGTCACCTAGTGCAG” the figure was 8540 fluorescence intensity (a.u.); with “ATTTCTTATTCTTATCCACACTACATGTTATTGAATAAATCGGAGTCACCTAGTGCAG”, 8140 fluorescence intensity (a.u.). With “ATCTGACCATCTTTATATCACGTTGGGCCCCATGCTTCTCCGGAGTCACCTAGTGCAG”, the binding signal was 11300 fluorescence intensity (a.u.). Take “ACCAAACATCCACACTCTACCGCACCTCCTTACGCTCACCCGGAGTCACCTAGTGCAG”: the binding signal was 9900 fluorescence intensity (a.u.). For “ATAGCTACCTACTATGCCGCGTAACTATTATGTGCACCGTCGGAGTCACCTAGTGCAG”, the binding signal is 8700 fluorescence intensity (a.u.).

Turning to “GGTATTGTGTTTGGTTGTTGCTTGCTAGCTAGCCGCTGGTCGGAGTCACCTAGTGCAG”, the binding signal is 8880 fluorescence intensity (a.u.). The value for “GGGCTTCTTTTGTGAATTTCTTCCCTTGCAGTCTCCCTCGCGGAGTCACCTAGTGCAG” was 12900 fluorescence intensity (a.u.); that for “TTTTTTTTTTCTGTTGGCTCATTGGACAATTACTTGCAAGCGGAGTCACCTAGTGCAG” was 10600 fluorescence intensity (a.u.).
